The text below walks through data of PMC8639466.

By UniProt entry, the sequences of proteins in these tests, tags left out. Where a name states a change or a piece, a line headed by the entry shows the natural chain unless it says otherwise. Residues count along the entry.
UniProt Q08945: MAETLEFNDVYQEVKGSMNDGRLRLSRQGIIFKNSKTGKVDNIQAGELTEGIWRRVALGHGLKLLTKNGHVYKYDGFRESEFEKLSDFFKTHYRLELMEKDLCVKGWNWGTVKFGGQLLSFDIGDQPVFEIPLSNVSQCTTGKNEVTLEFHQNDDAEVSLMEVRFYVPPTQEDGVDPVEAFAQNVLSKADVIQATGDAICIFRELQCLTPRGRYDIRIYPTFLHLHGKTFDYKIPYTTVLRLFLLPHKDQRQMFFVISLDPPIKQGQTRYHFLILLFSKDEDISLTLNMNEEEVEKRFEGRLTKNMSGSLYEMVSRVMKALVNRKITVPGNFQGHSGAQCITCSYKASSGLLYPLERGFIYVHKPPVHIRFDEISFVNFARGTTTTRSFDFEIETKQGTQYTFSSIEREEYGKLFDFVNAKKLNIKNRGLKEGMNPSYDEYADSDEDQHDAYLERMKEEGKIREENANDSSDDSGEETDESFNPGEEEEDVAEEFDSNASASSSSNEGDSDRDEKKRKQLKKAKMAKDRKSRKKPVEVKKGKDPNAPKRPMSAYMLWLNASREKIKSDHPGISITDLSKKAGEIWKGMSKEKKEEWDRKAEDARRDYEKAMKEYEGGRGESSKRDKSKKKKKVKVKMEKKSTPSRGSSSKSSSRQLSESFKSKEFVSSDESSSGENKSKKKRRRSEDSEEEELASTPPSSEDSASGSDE
flag-hSSRP1-PH3/4 (Gly196-Leu430 as printed): residues 196-430 of Q08945
flag-hSSRP1 C-terminal disordered region (Gly617-Glu709): residues 617-709 of Q08945
UniProt P68400: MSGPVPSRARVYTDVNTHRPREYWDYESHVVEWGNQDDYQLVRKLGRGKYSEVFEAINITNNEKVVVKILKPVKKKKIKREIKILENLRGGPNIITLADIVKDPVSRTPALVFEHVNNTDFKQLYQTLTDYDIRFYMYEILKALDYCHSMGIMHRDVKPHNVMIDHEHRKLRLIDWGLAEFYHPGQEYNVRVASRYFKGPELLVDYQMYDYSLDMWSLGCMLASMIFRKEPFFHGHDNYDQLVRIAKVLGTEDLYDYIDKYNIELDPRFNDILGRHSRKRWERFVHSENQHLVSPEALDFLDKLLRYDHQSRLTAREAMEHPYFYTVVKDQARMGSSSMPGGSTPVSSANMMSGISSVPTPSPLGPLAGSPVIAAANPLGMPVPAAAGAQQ

Results are given in words; binding and its absence hold for the method and conditions named. For some of these results: Binding seen in cells or lysates may run through a third protein. Some results given as binding are weak or reduced against the parent protein; the word gives no strength.

The target of assay [1] is flag-hSSRP1, wild type, full length (human) (UniProt Q08945). Briefly: co-IP; flag-hSSRP1 constructs transfected into HeLa cells; extract supernatant on Flag magnetic beads overnight at 4 °C; Western blot. (In general: A western blot detects proteins with antibodies after separation by electrophoresis.)
For assay [2], the target named is flag-hSSRP1 C-terminal disordered region (Gly617-Glu709) (human) (UniProt Q08945). The assay is described as above.
For assay [3], the target named is flag-hSSRP1-PH3/4 (Gly196-Leu430 as printed) (human) (UniProt Q08945). Described as above.
The next assay deals with hSSRP1-HMG546-616 (Homo sapiens, UniProt Q08945 546-616). As to the kind of experiment: SEC; molecular weight calibration of the single protein in solution; both purified.

In the case of “casein kinase II (CK2) (from UniProt P68400 1-391; P67870 1-215) (complex)”, the binding result in assay [1], in assay [2] and in assay [3] was “binds” each time.
Take “hSSRP1-HMG 546-616 (from UniProt Q08945 546-616) (domain or fragment)”: the binding entry with hSSRP1-HMG546-616 was “no binding”.
